Results as given in PubChem BioAssay AID1347423 (Functional Genomics Laboratory (NCATS/FGL), 2020).
Screen size: about 52,000 sequences; about 210 (0.4%) were called active.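 How the source made its calls: active means gene whose silencing raises cell survival under the drug, median off-target-corrected z-score across its silencing RNAs 2 or more; inactive means the rest.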 The list shows a part of the results.

Experiment: Resistance to Poly (ADP-Ribose) Polymerase inhibitor: Gene Identification via Genome-wide siRNA Screen
Conditions: mouse BRCA2 R2336H ES cells, olaparib, CellTiter-Glo viability; stronger effect = higher value
Method in brief: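 Mouse BRCA2 R2336H ES cells were reverse-transfected with siRNA (20 nM final), treated at 48 h with 500 nM olaparib, and read by CellTiter-Glo after 72 h. Scores: MAD-based z per siRNA, median per gene, seed off-target correction.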

For GGAUCUUGUGUUGUAUAAATT against Etv3, which z-score is on record?
The z-score was inactive: -0.0977.

Which z-score does the source give for GGCAAUAGAAACUUUUGGUTT against V1rh1 here?
The z-score was inactive: 0.759.

For GCUCUCGUCACUGUGUUACTT against Paip2, which z-score is on record?
The z-score was inactive: 0.0718.

For GGACAAUAUAGGAUCAACATT against Kmo, which z-score is on record?
The z-score was inactive: 0.118.

Which z-score does the source give for GGUGAAGUCUUACCUAUACTT against Aacs here?
The z-score was inactive: -0.387.

Which z-score does the source give for GGAUUCUGUGAUUUGUCUATT against Tesp1 here?
The z-score was inactive: -0.217.

For CCUUCAUUGGUUAGCAUGUTT against Rbl2, which z-score is on record?
Its z-score is inactive: 1.6.

Which z-score does the source give for GCCGACCACAGUACAAGACTT against Bivm here?
The z-score was inactive: 0.997.

For GGCUCUAAUGUAAUGAAUCTT against Fgf10, which z-score is on record?
Its z-score is inactive: 0.576.

With GGGACGGAGAAAAGCUUUUTT against Olfr419 as the sequence, how does the z-score read?
The z-score was inactive: 0.731.

Which z-score does the source give for CCUCAUUCUGUAAAAGAGATT against Hpcal4 here?
The z-score was inactive: 0.0828.

Which z-score does the source give for CCUGUGUUCUGACCUAGAGTT against Hes6 here?
The z-score was inactive: 0.377.

With “GGGAAGAAAUAAAAGAAACTT against 1110020L19Rik” as the sequence, how does the z-score read?
The z-score was inactive: 0.725.

For GGCUCUAAAGAGACACCUUTT against Olfr498, which z-score is on record?
Its z-score is inactive: 0.17.

For GGAAAAGCUACAUUACUUCTT against Trim31, which z-score is on record?
The z-score was inactive: 0.744.

Which z-score does the source give for CCAAGUCUAAAGGGAAUGGTT against S100a9 here?
Its z-score is inactive: 1.83.

Which z-score does the source give for CGACCGUUUUAAAUCAUAATT against C5r1 here?
The z-score was inactive: 0.93.

With “GGUCAUGUUAAAGGAAUCATT against 4933403F05Rik” as the sequence, how does the z-score read?
The z-score was inactive: 0.531.

Which z-score does the source give for GGCAUUAACCUGAGAUGAUTT against Sprr2i here?
The z-score was inactive: -0.904.

Which z-score does the source give for CCGGAAACGGAUCAUUUCATT against Galntl4 here?
Its z-score is inactive: 0.0908.

For GCUGCUCAGUUUCUUCCAATT against Hist1h4i, which z-score is on record?
The z-score was inactive: -1.05.

For “CCACUUCAUGAUUGAGUGCTT against 4921501E09Rik”, which z-score is on record?
The z-score was inactive: 0.608.

Which z-score does the source give for GUGUUCAGGAAGCUGGCAGTT against Klra19 here?
Its z-score is inactive: 0.55.

For “CCUAAUCAAAGGCACUAGATT against 0910001K20Rik”, which z-score is on record?
Its z-score is inactive: -0.578.

For GGAGAUGAAAUAAAGUGGATT against Bucs1, which z-score is on record?
Its z-score is inactive: -0.159.

Which z-score does the source give for CCAUAUGAGAAGAUGACACTT against Pdcl2 here?
The z-score was inactive: -0.0774.

With CCCAUAAGGGUGAAAUUCGTT against Tax1bp1 as the sequence, how does the z-score read?
The z-score was inactive: 0.199.

For “GGAGACAUGCAAUGAACUUTT against 1700030B17Rik”, which z-score is on record?
The z-score was inactive: 0.65.

With “GGAAAAGAGCCUCACAGACTT against Cocoacrisp” as the sequence, how does the z-score read?
Its z-score is inactive: -0.151.
